Source: PubChem BioAssay AID1259254 (NCATS, 2017)

Assay: 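Gene knock-downs that lead to re-replication, shown by excess G2 DNA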 (primary screen)
System: human HCT116 colorectal cancer cells
Knock-down reagent: single siRNA against human genes
Timing: 3 days
Detection: 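Imaged Hoechst DNA stain sorts each cell into a cycle phase by DNA amount; per plate, G2 fraction set to 0% for non-targeting and 100% for GMNN siRNA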
Scale: G2 robust z-score: higher = more G2 cells, more excess DNA replication
Call rule: 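An siRNA counts as active if its G2 robust z-score lies at least 5 MADs above the screen median; here such calls match roughly 38% of GMNN control or more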
Here is one part, drawn at random, of about 59,000 reagents tested. About 1,550 of them (2.6%) were called active. 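G2 share is only a proxy for re-replication; each gene was hit by three separate siRNAs, and active genes were retested.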 Unmarked entries are inactive. Reagents against one gene are numbered here. Not all columns of the deposit are shown. Not given: the amount of reagent.

PHF7 (PHD finger protein 7) #1 | G2 robust z-score = 0.157
PHF7 (PHD finger protein 7) #2 | G2 robust z-score = -0.237
PHF7 (PHD finger protein 7) #3 | G2 robust z-score = 0.553
MRPL41 (mitochondrial ribosomal protein L41) #1 | G2 robust z-score = 0.713
MRPL41 (mitochondrial ribosomal protein L41) #2 | G2 robust z-score = 0.77
MRPL41 (mitochondrial ribosomal protein L41) #3 | G2 robust z-score = -0.142
INHBC (inhibin subunit beta C) #1 | G2 robust z-score = 3.64
INHBC (inhibin subunit beta C) #2 | G2 robust z-score = -0.085
INHBC (inhibin subunit beta C) #3 | G2 robust z-score = -0.572
RHEB (Ras homolog, mTORC1 binding) #1 | G2 robust z-score = 0.434
RHEB (Ras homolog, mTORC1 binding) #2 | G2 robust z-score = -1.14
RHEB (Ras homolog, mTORC1 binding) #3 | G2 robust z-score = -1.07
TMEM14B (transmembrane protein 14B) #1 | G2 robust z-score = 1.91
TMEM14B (transmembrane protein 14B) #2 | G2 robust z-score = -0.961
TMEM14B (transmembrane protein 14B) #3 | G2 robust z-score = -0.0656
PPP1CC (protein phosphatase 1 catalytic subunit gamma) #1 | G2 robust z-score = 4.03
PPP1CC (protein phosphatase 1 catalytic subunit gamma) #2 | G2 robust z-score = 0.626
PPP1CC (protein phosphatase 1 catalytic subunit gamma) #3 | G2 robust z-score = 0.859

The list goes on (4 carried over from the part before).
TMEM14B (transmembrane protein 14B) #3 | G2 robust z-score = -0.0656
PPP1CC (protein phosphatase 1 catalytic subunit gamma) #1 | G2 robust z-score = 4.03
PPP1CC (protein phosphatase 1 catalytic subunit gamma) #2 | G2 robust z-score = 0.626
PPP1CC (protein phosphatase 1 catalytic subunit gamma) #3 | G2 robust z-score = 0.859
RBP4 (retinol binding protein 4) #1 | G2 robust z-score = -0.564
RBP4 (retinol binding protein 4) #2 | G2 robust z-score = 1.91
RBP4 (retinol binding protein 4) #3 | G2 robust z-score = 1.07
ZNF784 (zinc finger protein 784) #1 | G2 robust z-score = -0.42
ZNF784 (zinc finger protein 784) #2 | G2 robust z-score = -1.01
ZNF784 (zinc finger protein 784) #3 | G2 robust z-score = -0.267
HLA-G (major histocompatibility complex, class I, G) #1 | G2 robust z-score = 1.12
HLA-G (major histocompatibility complex, class I, G) #2 | G2 robust z-score = 0.0104
HLA-G (major histocompatibility complex, class I, G) #3 | G2 robust z-score = 0.828
SERPINB12 (serpin family B member 12) #1 | G2 robust z-score = -0.173
SERPINB12 (serpin family B member 12) #2 | G2 robust z-score = -0.883
SERPINB12 (serpin family B member 12) #3 | G2 robust z-score = 1.11
